Measurements as given in doi:10.1101/2020.06.25.170399 (bioRxiv, 2020).
No constants are given. Whether binding was seen depends on the method and setting. Some entries that bind do so weakly or less than the wild type.

Target: T1, α subunit of human NAD-dependent isocitrate dehydrogenase (IDH3) (human), P50213
T1 chain: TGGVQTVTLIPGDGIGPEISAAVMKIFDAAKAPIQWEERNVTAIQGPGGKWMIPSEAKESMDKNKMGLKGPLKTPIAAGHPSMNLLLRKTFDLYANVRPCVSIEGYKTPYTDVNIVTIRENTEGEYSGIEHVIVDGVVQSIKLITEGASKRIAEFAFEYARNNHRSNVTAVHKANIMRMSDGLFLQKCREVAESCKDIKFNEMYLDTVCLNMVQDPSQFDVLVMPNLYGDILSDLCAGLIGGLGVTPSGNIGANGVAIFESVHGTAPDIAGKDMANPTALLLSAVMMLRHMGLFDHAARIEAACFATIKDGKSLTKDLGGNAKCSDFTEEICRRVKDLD
Assay: crystal structure
Conditions: remark: other sources report otherwise

B1: α subunit of human NAD-dependent isocitrate dehydrogenase (IDH3) (natural protein)
chain: TGGVQTVTLIPGDGIGPEISAAVMKIFDAAKAPIQWEERNVTAIQGPGGKWMIPSEAKESMDKNKMGLKGPLKTPIAAGHPSMNLLLRKTFDLYANVRPCVSIEGYKTPYTDVNIVTIRENTEGEYSGIEHVIVDGVVQSIKLITEGASKRIAEFAFEYARNNHRSNVTAVHKANIMRMSDGLFLQKCREVAESCKDIKFNEMYLDTVCLNMVQDPSQFDVLVMPNLYGDILSDLCAGLIGGLGVTPSGNIGANGVAIFESVHGTAPDIAGKDMANPTALLLSAVMMLRHMGLFDHAARIEAACFATIKDGKSLTKDLGGNAKCSDFTEEICRRVKDLD
  binding: binds
